Test results published in paper PMC4716839.
For some of these results: No signal at the amounts used counts as a negative. For some of these results: At least one verdict rests on a figure or table, not on a statement of the authors. For some of these results: Where a protein sequence is shown, tags need not be part of it. For some of these results: For at least one entry, the source does not settle the construct or the ends of the probe.

Chains of the proteins cited; added tags and fusions are not shown. Chains listed by the source or under a name are the forms on record and can include a tag or linker. Residues count along the entry.
UniProt Q8VEE4, 191-431: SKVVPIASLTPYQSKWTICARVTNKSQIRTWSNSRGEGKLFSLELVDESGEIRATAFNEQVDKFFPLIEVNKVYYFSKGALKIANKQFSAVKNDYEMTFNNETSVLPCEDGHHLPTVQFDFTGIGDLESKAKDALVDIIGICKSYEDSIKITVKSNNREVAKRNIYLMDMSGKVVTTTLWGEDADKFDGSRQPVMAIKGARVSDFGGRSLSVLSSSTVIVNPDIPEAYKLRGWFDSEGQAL
Rpa heterotrimer (Rpa70/Rpa32/Rpa14) (Mus musculus), one chain, as listed by the source, chain 3 of 2: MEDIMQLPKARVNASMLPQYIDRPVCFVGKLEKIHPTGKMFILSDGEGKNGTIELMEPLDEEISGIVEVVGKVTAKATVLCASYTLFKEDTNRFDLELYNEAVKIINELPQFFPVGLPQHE
Rpa heterotrimer (Rpa70/Rpa32/Rpa14) (Mus musculus), one chain, as listed by the source, chain 2 of 2: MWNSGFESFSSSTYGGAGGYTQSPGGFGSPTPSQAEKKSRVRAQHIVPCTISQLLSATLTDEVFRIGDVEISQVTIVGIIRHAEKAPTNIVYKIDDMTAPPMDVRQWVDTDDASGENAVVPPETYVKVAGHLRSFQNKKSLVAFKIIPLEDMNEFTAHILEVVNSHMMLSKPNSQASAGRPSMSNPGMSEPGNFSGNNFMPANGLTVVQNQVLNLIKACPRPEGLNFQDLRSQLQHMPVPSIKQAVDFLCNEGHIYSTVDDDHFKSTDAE

What was measured:
[1] = tested on: Rpa heterotrimer (Rpa70/Rpa32/Rpa14) (Mus musculus); test: competition (GST pull-down); conditions: GST-Dna2 alpha1OB (1-122); EMSA: 20 mM Tris-HCl pH 8.0, 80 mM NaCl, 0.3 mM TCEP, 0.2 mg/mL BSA, 2% glycerol, on ice 30 min, 0.075 or 0.3 nM 32P-DNA; 4% native PAGE, 1x TB, 4 C; recombinant protein; protein details: cleavable N-terminal GST on Rpa32; single-stranded DNA; scale: fold reduction of Rpa bound to GST-alpha1OB at one molar equivalent of DNA
[2] = biological target: T1, Rpa70N (OBN) (Mus musculus) (UniProt Q8VEE4); test: competition (GST pull-down); conditions: DNA does not affect GST-Dna2 alpha1 binding, text states lack of ssDNA affinity; EMSA: 20 mM Tris-HCl pH 8.0, 80 mM NaCl, 0.3 mM TCEP, 0.2 mg/mL BSA, 2% glycerol, on ice 30 min, 0.075 or 0.3 nM 32P-DNA; 4% native PAGE, 1x TB, 4 C; recombinant protein; residues 1-122; protein details: 6-His-SUMO removed; single-stranded DNA
T1 sequence (looked up): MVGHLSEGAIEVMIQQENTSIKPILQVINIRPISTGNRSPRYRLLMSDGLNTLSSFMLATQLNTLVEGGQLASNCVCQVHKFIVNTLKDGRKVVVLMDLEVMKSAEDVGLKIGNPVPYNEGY

[3] = biological target: Rpa70AB (DBD-A and DBD-B) (Mus musculus) (UniProt Q8VEE4); test: competition (GST pull-down); conditions: DNA abolishes GST-Dna2 OB binding, stoichiometry dependent; EMSA: 20 mM Tris-HCl pH 8.0, 80 mM NaCl, 0.3 mM TCEP, 0.2 mg/mL BSA, 2% glycerol, on ice 30 min, 0.075 or 0.3 nM 32P-DNA; 4% native PAGE, 1x TB, 4 C; recombinant protein; residues 191-431; protein details: 6-His-SUMO removed; single-stranded DNA
Dna2 OB domain = biological target: T2, Dna2 OB domain (UniProt Q6ZQJ5); test: EMSA; conditions: no detectable binding up to 80 uM, smeary shift of ~4% of DNA at 160 uM; EMSA: 20 mM Tris-HCl pH 8.0, 80 mM NaCl, 0.3 mM TCEP, 0.2 mg/mL BSA, 2% glycerol, on ice 30 min, 0.075 or 0.3 nM 32P-DNA; 4% native PAGE, 1x TB, 4 C; recombinant protein; residues 21-122; single-stranded DNA
T2 sequence (looked up): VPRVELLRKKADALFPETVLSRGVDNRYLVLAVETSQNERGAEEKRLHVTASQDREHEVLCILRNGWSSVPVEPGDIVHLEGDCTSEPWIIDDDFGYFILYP

Sequence: TTTTTTTTTTTTTTTTTTTTTTTT [(dT)24]
- binding signal [1]: 4

Sequence: TTTTTTTT [(dT)8]
- binding result [2]: no binding
- binding result [3]: binds

Sequence: TTTTTTTTTTTTTTTTTTTT [(dT)20]
- Kd (Dna2 OB domain): > 80 µM
